Experimental data taken from patent US20160215065A1 (Genentech, published 2016).
Results are given in words; binding and its absence hold for the method and conditions named. Some entries that bind do so weakly or less than the wild type.

T1: recombinant mouse NSP4 (form not stated) (mouse, UniProt Q14B24 40-284, limits assumed)
T1 construct: also called mNSP4; soluble mNSP4
T1 sequence (looked up): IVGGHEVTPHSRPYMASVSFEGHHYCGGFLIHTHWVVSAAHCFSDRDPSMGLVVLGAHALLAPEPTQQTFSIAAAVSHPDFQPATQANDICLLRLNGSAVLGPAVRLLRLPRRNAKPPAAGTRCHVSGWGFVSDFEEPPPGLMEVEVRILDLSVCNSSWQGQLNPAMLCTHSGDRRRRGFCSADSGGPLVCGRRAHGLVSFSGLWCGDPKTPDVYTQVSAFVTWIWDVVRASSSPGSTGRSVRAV

T2: recombinant human NSP4 (form not stated) (human) (UniProt Q6UWY2)
T2 sequence (looked up): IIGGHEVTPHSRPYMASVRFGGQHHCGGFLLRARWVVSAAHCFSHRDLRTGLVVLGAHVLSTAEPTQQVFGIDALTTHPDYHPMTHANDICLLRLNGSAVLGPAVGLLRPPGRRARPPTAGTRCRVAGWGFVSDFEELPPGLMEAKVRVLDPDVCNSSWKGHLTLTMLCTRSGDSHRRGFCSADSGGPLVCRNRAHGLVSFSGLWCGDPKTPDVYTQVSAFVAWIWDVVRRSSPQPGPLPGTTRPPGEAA

T3: mouse zymogen NSP4 (mZ) (mouse, UniProt Q14B24 36-284)
T3 construct: mature; Expressed in CHO cells; also called mZ-NSP4; mZ (NSP4); not shown: N-terminal FLAG tag cleavable by enteropeptidase (cleavage after Asp-Asp-Asp-Asp-Lys)
T3 sequence (looked up): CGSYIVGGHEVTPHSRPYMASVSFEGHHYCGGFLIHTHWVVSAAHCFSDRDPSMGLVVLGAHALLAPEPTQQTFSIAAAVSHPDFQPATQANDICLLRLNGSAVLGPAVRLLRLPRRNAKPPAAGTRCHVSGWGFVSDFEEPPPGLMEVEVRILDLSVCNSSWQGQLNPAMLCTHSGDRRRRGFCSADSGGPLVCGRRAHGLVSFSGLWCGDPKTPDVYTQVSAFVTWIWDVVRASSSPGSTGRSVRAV


Legend:
[1] = molecular target: T1, recombinant mouse NSP4 (form not stated); test: BLI; antibody on sensor, 50 nM mouse NSP4 preincubated with buffer or Fab 5-1
[2] = molecular target: T1, recombinant mouse NSP4 (form not stated); test: competition phage ELISA (phage IC50) with soluble mNSP4 competitor, A450
[3] = molecular target: T1, recombinant mouse NSP4 (form not stated); test: BLI; antibody on sensor, 50 nM mouse NSP4 preincubated with buffer or 10 ug/ml heparin sulfate
[4] = molecular target: T1, recombinant mouse NSP4 (form not stated); test: phage IC50 assay
[5] = molecular target: T2, recombinant human NSP4 (form not stated) (human); test: competition phage ELISA (phage IC50) with soluble hNSP4 competitor, A450
[6] = molecular target: T3, mouse zymogen NSP4 (mZ); test: biolayer interferometry; human IgG1
[7] = molecular target: T3, mouse zymogen NSP4 (mZ); test: BLI; IgG1 on anti-human Fc sensor, NSP4 variant in solution, concentration not on sheet

Binder	binding [2]	binding [4]	also measured
anti-NSP4 antibody 5-1 (antibody, human IgG1, V domains shown) VH: EVQLVESGGGLVQPGGSLRLSCAASGFTFSGSGIHWVRQAPGKGLEWVAWISPTGGNTYYADSVKGRFTISADTSKNTAYLQMNSLRAEDTAVYYCAKSLFHNVAFDYWGQGTLVTVSS VL: DIQMTQSPSSLSASVGDRVTITCRASQDVSTAVAWYQQKPGKAPKLLIYSASFLYSGVPSRFSGSGSGTDFTLTISSLQPEDFATYYCQQSYTTPPTFGQGTKVEIKR	binds		binding [1]: binds; binding [3]: binds
affinity matured anti-NSP4 antibody clone 51.72 (Fab, V domains shown) VH: EVQLVESGGGLVQPGGSLRLSCAASGFTFSGSGIHWVRQAPGKGLEWVAWISPTGGNTYYADSVKGRFTISADTSKNTAYLQMNSLRAEDTAVYYCAKSLFHNVAFDYWGQGTLVTVSS VL: DIQMTQSPSSLSASVGDRVTITCRASQDVSTAVAWYQQKPGKAPKLLIYSASFLYSGVPSRFSGSGSGTDFTLTISSLQPEDFATYYCQQSYTAPPTFGQGTKVEIKR	binds	binds	
affinity matured anti-NSP4 antibody clone 51.51 (Fab, V domains shown) VH: EVQLVESGGGLVQPGGSLRLSCAASGFTFSGSGIHWVRQAPGKGLEWVAWISPTGGNTYYADSVKGRFTISADTSKNTAYLQMNSLRAEDTAVYYCARGLFHNVAFDYWGQGTLVTVSS VL: DIQMTQSPSSLSASVGDRVTITCRASQDVSTAVAWYQQKPGKAPKLLIYSASFLYSGVPSRFSGSGSGTDFTLTISSLQPEDFATYYCQQSYTAPPTFGQGTKVEIKR	binds	binds	
anti-NSP4 antibody 2-3 (antibody, human IgG1, V domains shown, also called clone 2-3) VH: EVQLVESGGGLVQPGGSLRLSCAASGFTFTDSDISWVRQAPGKGLEWVAWISPSDGATDYADSVKGRFTISADTSKNTAYLQMNSLRAEDTAVYYCAHEASDDDYAIDYWGQGTLVTVSS VL: DIQMTQSPSSLSASVGDRVTITCRASQDVSTAVAWYQQKPGKAPKLLIYSASFLYSGVPSRFSGSGSGTDFTLTISSLQPEDFATYYCQQSYTTPPTFGQGTKVEIKR			binding [6]: binds; binding [7]: binds
anti-NSP4 antibody 5-2 (antibody, V domains shown) VH: EVQLVESGGGLVQPGGSLRLSCAASGFTFSNTYISWVRQAPGKGLEWVGFIYPANGATYYADSVKGRFTISADTSKNTAYLQMNSLRAEDTAVYYCARRYRLSFDYWGQGTLVTVSS VL: DIQMTQSPSSLSASVGDRVTITCRASQDVSTAVAWYQQKPGKAPKLLIYSASFLYSGVPSRFSGSGSGTDFTLTISSLQPEDFATYYCQQSYTTPPTFGQGTKVEIKR			binding [1]: binds; binding [3]: binds
anti-NSP4 antibody 2-4 (antibody, human IgG1, V domains shown, also called clone 2-4) VH: EVQLVESGGGLVQPGGSLRLSCAASGFTFSDYWISWVRQAPGKGLEWVAGISPNNGDTYYADSVKGRFTISADTSKNTAYLQMNSLRAEDTAVYYCAREDDDERDYAMDYWGQGTLVTVSS VL: DIQMTQSPSSLSASVGDRVTITCRASQDVSTAVAWYQQKPGKAPKLLIYSASFLYSGVPSRFSGSGSGTDFTLTISSLQPEDFATYYCQQSYTTPPTFGQGTKVEIKR			binding [6]: binds; binding [7]: binds
anti-NSP4 antibody 5-4 (antibody, V domains shown) VH: EVQLVESGGGLVQPGGSLRLSCAASGFTFTSYAISWVRQAPGKGLEWVAGISPSNGYTNYADSVKGRFTISADTSKNTAYLQMNSLRAEDTAVYYCARAGRWTHSDIDYWGQGTLVTVSS VL: DIQMTQSPSSLSASVGDRVTITCRASQDVSTAVAWYQQKPGKAPKLLIYSASFLYSGVPSRFSGSGSGTDFTLTISSLQPEDFATYYCQQSYTTPPTFGQGTKVEIKR			binding [1]: binds; binding [3]: binds
anti-NSP4 antibody 2-1 (antibody, human IgG1, V domains shown, also called clone 2-1) VH: EVQLVESGGGLVQPGGSLRLSCAASGFTFTDYSIHWVRQAPGKGLEWVAEIYPYSGDTYYADSVKGRFTISADTSKNTAYLQMNSLRAEDTAVYYCARDGDGWFDWAMDYWGQGTLVTVSS VL: DIQMTQSPSSLSASVGDRVTITCRASQDVSTAVAWYQQKPGKAPKLLIYSASFLYSGVPSRFSGSGSGTDFTLTISSLQPEDFATYYCQQSYTTPPTFGQGTKVEIKR			binding [6]: binds; binding [7]: binds
affinity matured anti-NSP4 antibody clone 51.59 (Fab, V domains shown) VH: EVQLVESGGGLVQPGGSLRLSCAASGFTFSGSGIHWVRQAPGKGLEWVAWISPTGGNTYYADSVKGRFTISADTSKNTAYLQMNSLRAEDTAVYYCARVFFHNVAFDYWGQGTLVTVSS VL: DIQMTQSPSSLSASVGDRVTITCRASQDVSTAVAWYQQKPGKAPKLLIYSASFLYSGVPSRFSGSGSGTDFTLTISSLQPEDFATYYCQQNFSSPPTFGQGTKVEIKR	binds	binds	

The next lines start with results.

binding [2]	binding [4]	Binder	also measured
binds	binds	affinity matured anti-NSP4 antibody clone 51.50 (Fab, V domains shown) VH: EVQLVESGGGLVQPGGSLRLSCAASGFTFSGSGIHWVRQAPGKGLEWVAWISPTGGNTYYADSVKGRFTISADTSKNTAYLQMNSLRAEDTAVYYCAKSLFHNVAFDYWGQGTLVTVSS VL: DIQMTQSPSSLSASVGDRVTITCRASQDVSTAVAWYQQKPGKAPKLLIYSASFLYSGVPSRFSGSGSGTDFTLTISSLQPEDFATYYCQQANSTPPTFGQGTKVEIKR	
binds	binds	affinity matured anti-NSP4 antibody clone 35.50 (Fab, V domains shown) VH: EVQLVESGGGLVQPGGSLRLSCAASGFTFSDNDISWVRQAPGKGLEWVGSISPDNGDTNYADSVKGRFTISADTSKNTAYLQMNSLRAEDTAVYYCARDDVPAVFTSAMDYWGQGTLVTVSS VL: DIQMTQSPSSLSASVGDRVTITCRASQDVSTAVAWYQQKPGKAPKLLIYSASFLYSGVPSRFSGSGSGTDFTLTISSLQPEDFATYYCQQSYDFPLTFGQGTKVEIKR	binding [5]: binds
binds	binds	affinity matured anti-NSP4 antibody clone 51.82 (Fab, V domains shown) VH: EVQLVESGGGLVQPGGSLRLSCAASGFTFSGSGIHWVRQAPGKGLEWVAWISPTGGNTYYADSVKGRFTISADTSKNTAYLQMNSLRAEDTAVYYCARGLFHNVAFDYWGQGTLVTVSS VL: DIQMTQSPSSLSASVGDRVTITCRASQDVSTAVAWYQQKPGKAPKLLIYSASFLYSGVPSRFSGSGSGTDFTLTISSLQPEDFATYYCQQTYNAPPTFGQGTKVEIKR	
binds	binds	affinity matured anti-NSP4 antibody clone 35.14 (Fab, V domains shown) VH: EVQLVESGGGLVQPGGSLRLSCAASGFTFSDNDISWVRQAPGKGLEWVGSISPDNGDTNYADSVKGRFTISADTSKNTAYLQMNSLRAEDTAVYYCARDDVPAVFTSAMDYWGQGTLVTVSS VL: DIQMTQSPSSLSASVGDRVTITCRASQDVSTAVAWYQQKPGKAPKLLIYSASFLYSGVPSRFSGSGSGTDFTLTISSLQPEDFATYYCQQSYGFPLTFGQGTKVEIKR	binding [5]: binds
binds	binds	affinity matured anti-NSP4 antibody clone 35.62 (Fab, V domains shown) VH: EVQLVESGGGLVQPGGSLRLSCAASGFTFSDNDISWVRQAPGKGLEWVGSISPDNGDTNYADSVKGRFTISADTSKNTAYLQMNSLRAEDTAVYYCARDDVPAVFTSAMDYWGQGTLVTVSS VL: DIQMTQSPSSLSASVGDRVTITCRASQDVSTAVAWYQQKPGKAPKLLIYSASFLYSGVPSRFSGSGSGTDFTLTISSLQPEDFATYYCQQSAGFPLTFGQGTKVEIKR	binding [5]: binds
binds	binds	affinity matured anti-NSP4 antibody clone 35.77 (Fab, V domains shown) VH: EVQLVESGGGLVQPGGSLRLSCAASGFTFSGSGIHWVRQAPGKGLEWVAWISPTGGNTYYADSVKGRFTISADTSKNTAYLQMNSLRAEDTAVYYCAKRHLHNVAFDYWGQGTLVTVSS VL: DIQMTQSPSSLSASVGDRVTITCRASQDVSTAVAWYQQKPGKAPKLLIYSASFLYSGVPSRFSGSGSGTDFTLTISSLQPEDFATYYCQQAYSAPPTFGQGTKVEIKR	
binds	binds	affinity matured anti-NSP4 antibody clone 51.30 (Fab, V domains shown) VH: EVQLVESGGGLVQPGGSLRLSCAASGFTFSGSGIHWVRQAPGKGLEWVAWIPTAGGNTYYADSVKGRFTISADTSKNTAYLQMNSLRAEDTAVYYCAKSLFHNVAFDYWGQGTLVTVSS VL: DIQMTQSPSSLSASVGDRVTITCRASQDVSTAVAWYQQKPGKAPKLLIYSASFLYSGVPSRFSGSGSGTDFTLTISSLQPEDFATYYCQQSYTAPPTFGQGTKVEIKR	
